Results on seven molecules are retold here after PMC10882499.

Amino acid sequences for entries named in this document (tags omitted).
UniProt P62136: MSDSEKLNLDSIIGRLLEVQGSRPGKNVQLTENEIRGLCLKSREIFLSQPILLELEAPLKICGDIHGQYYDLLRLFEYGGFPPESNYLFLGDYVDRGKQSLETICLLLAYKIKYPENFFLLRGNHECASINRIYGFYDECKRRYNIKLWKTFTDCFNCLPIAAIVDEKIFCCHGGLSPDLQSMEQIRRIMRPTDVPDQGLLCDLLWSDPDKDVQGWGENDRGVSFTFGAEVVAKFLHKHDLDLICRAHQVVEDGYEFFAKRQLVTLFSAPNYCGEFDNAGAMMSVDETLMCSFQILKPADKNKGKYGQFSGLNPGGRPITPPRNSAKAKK
UniProt P62140: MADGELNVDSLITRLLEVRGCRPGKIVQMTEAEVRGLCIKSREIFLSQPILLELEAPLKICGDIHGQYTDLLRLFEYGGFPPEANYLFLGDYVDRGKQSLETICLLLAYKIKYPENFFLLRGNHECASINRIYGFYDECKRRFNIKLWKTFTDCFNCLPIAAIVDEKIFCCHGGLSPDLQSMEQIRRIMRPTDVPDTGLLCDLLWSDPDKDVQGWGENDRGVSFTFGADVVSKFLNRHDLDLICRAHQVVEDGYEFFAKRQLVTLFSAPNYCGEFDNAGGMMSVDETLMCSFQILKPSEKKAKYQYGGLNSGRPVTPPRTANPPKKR
UniProt P36873: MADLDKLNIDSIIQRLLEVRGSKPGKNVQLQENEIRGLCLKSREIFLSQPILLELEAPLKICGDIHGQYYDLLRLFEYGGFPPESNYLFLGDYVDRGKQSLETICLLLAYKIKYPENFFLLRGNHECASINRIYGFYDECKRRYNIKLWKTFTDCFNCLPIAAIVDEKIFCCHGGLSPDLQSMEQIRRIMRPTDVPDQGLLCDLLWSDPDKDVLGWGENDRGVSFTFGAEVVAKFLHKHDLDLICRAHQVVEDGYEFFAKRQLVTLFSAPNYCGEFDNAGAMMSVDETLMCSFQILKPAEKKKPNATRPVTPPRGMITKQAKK
UniProt O94822: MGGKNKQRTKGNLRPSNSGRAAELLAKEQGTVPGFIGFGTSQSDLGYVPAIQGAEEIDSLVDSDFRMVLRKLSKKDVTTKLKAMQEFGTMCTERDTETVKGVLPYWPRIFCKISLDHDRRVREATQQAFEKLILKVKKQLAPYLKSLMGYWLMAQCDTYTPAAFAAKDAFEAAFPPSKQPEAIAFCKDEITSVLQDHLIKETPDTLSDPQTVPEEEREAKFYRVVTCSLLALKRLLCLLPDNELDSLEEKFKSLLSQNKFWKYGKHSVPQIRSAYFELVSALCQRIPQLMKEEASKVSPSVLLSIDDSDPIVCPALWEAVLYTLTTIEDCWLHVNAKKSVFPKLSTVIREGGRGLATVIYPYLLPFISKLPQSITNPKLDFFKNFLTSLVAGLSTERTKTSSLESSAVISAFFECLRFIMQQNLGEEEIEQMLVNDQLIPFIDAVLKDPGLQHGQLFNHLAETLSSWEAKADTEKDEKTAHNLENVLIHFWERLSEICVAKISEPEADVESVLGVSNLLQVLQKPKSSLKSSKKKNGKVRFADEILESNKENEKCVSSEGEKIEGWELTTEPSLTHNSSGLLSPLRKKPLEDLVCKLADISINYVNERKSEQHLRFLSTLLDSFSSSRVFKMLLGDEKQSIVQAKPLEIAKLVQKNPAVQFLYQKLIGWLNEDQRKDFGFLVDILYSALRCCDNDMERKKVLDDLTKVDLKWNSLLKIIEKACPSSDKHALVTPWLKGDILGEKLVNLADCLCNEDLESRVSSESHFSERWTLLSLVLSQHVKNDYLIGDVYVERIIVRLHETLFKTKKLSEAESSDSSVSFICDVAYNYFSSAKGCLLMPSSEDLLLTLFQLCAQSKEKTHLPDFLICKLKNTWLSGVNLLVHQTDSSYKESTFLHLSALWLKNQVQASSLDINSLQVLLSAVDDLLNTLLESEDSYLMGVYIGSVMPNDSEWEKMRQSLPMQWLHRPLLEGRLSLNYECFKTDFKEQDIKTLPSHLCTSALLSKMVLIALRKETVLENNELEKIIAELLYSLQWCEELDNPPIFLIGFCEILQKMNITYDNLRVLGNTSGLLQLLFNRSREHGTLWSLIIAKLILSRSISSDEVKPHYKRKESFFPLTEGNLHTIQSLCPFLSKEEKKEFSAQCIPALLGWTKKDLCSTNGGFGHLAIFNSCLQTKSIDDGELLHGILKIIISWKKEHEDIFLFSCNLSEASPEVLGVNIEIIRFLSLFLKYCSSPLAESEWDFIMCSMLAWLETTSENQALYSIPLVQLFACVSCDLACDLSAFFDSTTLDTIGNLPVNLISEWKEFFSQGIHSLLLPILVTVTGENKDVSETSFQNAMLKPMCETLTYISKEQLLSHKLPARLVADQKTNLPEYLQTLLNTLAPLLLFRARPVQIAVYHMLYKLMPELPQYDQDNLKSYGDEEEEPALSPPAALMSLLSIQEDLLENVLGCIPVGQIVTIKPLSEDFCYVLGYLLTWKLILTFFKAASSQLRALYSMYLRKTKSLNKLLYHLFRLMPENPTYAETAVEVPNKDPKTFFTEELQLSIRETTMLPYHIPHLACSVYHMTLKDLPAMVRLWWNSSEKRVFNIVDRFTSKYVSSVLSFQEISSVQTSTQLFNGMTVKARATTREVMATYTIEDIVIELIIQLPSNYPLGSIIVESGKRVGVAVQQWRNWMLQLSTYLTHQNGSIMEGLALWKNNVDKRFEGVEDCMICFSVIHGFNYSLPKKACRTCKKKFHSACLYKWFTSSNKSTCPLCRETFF
UniProt Q9P2K8: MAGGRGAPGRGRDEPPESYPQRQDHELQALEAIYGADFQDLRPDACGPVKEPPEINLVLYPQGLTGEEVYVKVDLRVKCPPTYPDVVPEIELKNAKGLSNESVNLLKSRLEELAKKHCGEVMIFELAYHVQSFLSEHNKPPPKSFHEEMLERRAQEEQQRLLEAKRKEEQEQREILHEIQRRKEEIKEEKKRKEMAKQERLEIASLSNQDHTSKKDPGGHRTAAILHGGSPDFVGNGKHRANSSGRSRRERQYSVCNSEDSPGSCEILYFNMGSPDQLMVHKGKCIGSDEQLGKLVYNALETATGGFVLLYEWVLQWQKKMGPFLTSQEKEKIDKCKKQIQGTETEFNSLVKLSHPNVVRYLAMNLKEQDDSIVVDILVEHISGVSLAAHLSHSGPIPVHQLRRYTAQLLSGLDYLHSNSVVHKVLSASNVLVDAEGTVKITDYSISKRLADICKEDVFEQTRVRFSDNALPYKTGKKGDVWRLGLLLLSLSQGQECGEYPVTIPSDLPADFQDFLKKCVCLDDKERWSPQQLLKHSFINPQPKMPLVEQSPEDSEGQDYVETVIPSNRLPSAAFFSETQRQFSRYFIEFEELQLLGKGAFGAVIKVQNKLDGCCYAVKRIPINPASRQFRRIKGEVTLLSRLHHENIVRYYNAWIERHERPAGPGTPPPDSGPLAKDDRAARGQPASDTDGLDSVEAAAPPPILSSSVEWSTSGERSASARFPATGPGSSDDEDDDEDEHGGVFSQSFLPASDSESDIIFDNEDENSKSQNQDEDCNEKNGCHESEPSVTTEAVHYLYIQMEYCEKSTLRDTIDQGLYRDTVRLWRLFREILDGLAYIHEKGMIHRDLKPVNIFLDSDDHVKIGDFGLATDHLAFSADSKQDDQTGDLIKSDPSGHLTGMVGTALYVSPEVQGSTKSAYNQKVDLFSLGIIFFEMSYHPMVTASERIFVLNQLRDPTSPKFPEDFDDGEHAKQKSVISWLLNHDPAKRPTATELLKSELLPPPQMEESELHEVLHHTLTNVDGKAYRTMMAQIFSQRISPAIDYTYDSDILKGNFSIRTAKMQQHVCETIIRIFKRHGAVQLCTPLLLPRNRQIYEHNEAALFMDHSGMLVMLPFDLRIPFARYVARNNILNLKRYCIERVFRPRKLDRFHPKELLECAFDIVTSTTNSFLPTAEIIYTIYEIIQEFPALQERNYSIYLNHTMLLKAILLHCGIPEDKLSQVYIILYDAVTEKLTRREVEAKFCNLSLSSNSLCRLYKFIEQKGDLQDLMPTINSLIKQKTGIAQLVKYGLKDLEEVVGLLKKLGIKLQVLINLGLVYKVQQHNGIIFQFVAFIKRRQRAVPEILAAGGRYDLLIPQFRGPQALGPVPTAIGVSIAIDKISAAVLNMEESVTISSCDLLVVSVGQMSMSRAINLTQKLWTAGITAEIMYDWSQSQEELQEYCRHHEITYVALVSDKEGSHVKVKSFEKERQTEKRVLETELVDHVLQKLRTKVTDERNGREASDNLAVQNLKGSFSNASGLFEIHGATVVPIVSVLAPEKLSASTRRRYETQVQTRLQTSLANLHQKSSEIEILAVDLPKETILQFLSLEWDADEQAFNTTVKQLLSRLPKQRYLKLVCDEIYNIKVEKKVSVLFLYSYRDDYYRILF
UniProt P35573: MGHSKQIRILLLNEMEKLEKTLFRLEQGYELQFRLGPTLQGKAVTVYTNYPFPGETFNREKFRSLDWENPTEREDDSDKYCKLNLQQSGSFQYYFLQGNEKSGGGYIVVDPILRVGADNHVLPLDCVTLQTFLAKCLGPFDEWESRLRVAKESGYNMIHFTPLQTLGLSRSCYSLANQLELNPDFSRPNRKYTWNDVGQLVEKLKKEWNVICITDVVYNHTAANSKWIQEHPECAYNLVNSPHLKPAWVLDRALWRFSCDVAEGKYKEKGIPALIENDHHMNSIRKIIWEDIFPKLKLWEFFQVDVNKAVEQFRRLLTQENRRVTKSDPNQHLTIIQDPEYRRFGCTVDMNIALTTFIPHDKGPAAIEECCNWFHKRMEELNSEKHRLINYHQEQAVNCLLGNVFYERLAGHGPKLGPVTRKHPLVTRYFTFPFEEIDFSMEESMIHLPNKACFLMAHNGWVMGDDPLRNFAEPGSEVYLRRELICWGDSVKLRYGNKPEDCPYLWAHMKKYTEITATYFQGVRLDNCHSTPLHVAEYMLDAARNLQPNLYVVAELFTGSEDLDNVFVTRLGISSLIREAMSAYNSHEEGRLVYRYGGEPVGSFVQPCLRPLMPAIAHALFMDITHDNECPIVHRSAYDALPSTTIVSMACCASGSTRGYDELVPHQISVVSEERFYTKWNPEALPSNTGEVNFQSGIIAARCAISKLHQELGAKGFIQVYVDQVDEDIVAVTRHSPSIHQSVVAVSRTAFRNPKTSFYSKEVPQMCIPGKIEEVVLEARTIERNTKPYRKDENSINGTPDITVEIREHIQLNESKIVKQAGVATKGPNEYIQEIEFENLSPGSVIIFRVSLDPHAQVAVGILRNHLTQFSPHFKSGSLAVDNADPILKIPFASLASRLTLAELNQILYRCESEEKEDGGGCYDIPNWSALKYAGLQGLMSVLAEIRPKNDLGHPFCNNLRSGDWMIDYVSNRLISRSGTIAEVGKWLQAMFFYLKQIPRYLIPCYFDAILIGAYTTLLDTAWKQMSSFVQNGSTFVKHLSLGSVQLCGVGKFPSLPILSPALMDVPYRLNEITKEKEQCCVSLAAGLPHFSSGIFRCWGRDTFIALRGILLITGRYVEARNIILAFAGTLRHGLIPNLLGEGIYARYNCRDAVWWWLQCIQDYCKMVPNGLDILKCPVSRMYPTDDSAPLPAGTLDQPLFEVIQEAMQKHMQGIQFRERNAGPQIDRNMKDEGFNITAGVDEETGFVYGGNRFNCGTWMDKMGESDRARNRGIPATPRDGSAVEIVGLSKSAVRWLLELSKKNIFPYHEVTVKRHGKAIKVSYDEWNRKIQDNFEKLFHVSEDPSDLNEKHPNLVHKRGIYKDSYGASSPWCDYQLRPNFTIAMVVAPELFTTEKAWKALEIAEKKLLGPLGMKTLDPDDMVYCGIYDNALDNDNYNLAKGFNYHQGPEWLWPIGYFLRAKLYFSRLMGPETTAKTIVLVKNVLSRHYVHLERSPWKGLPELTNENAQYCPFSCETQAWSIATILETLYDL

Sequences and labels used below:
B1: nucleoplasmin-3 (protein, UniProt O75607 1-178)
chain: MAAGTAAALAFLSQESRTRAGGVGGLRVPAPVTMDSFFFGCELSGHTRSFTFKVEEEDDAEHVLALTMLCLTEGAKDECNVVEVVARNHDHQEIAVPVANLKLSCQPMLSLDDFQLQPPVTFRLKSGSGPVRITGRHQIVTMSNDVSEEESEEEEEDSDEEEVELCPILPAKKQGGRP

Results are given in words; binding and its absence hold for the method and conditions named. In cells and extracts the contact can be indirect. These calls come from enrichment with a bait or labelling near it, and not all partners need be listed.

The first experiment deals with T1, mVenus-PDP1.
T1 sequence: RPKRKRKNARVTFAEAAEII
The experiment can be described thus: affinity purification with mass spectrometry; HeLa Kyoto cells transiently transfected with mVenus-PDP1 or mVenus-PDP1m, lysed after 24 h; IP of mVenus with anti-GFP beads, tryptic digestion, LC-MS/MS with label-free quantification; compared with mVenus-control pulldowns.
Take “PP1α (from UniProt P62136 1-330) (enzyme)”: the binding entry is recorded as “binds”.

As to “PP1β (from UniProt P62140 1-327) (enzyme)”, the binding entry is “binds”.

Turning to “PP1γ (from UniProt P36873 1-323) (enzyme)”, the binding entry is “binds”.

A further experiment deals with mVenus-PP1α (UniProt P62136). Put plainly: affinity purification with mass spectrometry; HeLa Kyoto FlpInTrex mVenus-PP1α or mVenus-Ctrl cells induced with doxycycline 24 h, medium with 50 μM PDP-Nal, 50 μM PDPm-Nal or DMSO for 5 min at 37 °C, lysed; Co-IP with GFP-Trap beads, label-free quantitative mass spectrometry.
Consider “E3 ubiquitin-protein ligase listerin (from UniProt O94822 1-1766) (enzyme)”, for which the binding result is “binds”.

For the molecule “eIF-2-alpha kinase GCN2 (from UniProt Q9P2K8 1-1649) (enzyme)”, the binding result was “binds”.

As for “glycogen debranching enzyme (from UniProt P35573 1-1532)”, the binding result is given as “binds”.

As for B1, the binding result is listed as “binds”.
